PubChem BioAssay AID504808 – Drosophila RNAi Screening Center | 2011
Purpose: 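Fly genes required to hold E2F transcription in check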 (primary screen). Cells: Drosophila S2 cells. Reagents: long dsRNA against Drosophila genes. Detection: 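Dual luciferase plate measurements; E2F-specific signal taken as firefly over Renilla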. Scale: E2F firefly: higher = more E2F reporter activity; Renilla normaliser: higher = more normaliser reporter signal. Active means: 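a knock-down counted as active when the firefly/Renilla E2F signal rose above 50%, a threshold chosen arbitrarily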.
The screen tested about 21,000 reagents; shown is an unselected part of those with a known target gene and a result. In the full data, 18 (0.084%) are marked active. 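Raw counts without plate normalisation, one of two replicates; the ratio scores behind the calls were not deposited.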 Entries without a mark were called inactive. Reagents against one gene are numbered here. Names joined by + are all predicted targets of the reagent. No sequences are given here. Not stated in the record: the amount of reagent, the time to read-out.

CG42821 + CG42822 #1: E2F firefly, rep 1 = 76891; Renilla normaliser, rep 1 = 2646
CG42821 + CG42822 #2: E2F firefly, rep 1 = 78069; Renilla normaliser, rep 1 = 2340
Atac1: E2F firefly, rep 1 = 1.55e5; Renilla normaliser, rep 1 = 5468
CG4854: E2F firefly, rep 1 = 1.50e5; Renilla normaliser, rep 1 = 9267
CG7691: E2F firefly, rep 1 = 1.37e5; Renilla normaliser, rep 1 = 8135
CG11345: E2F firefly, rep 1 = 83229; Renilla normaliser, rep 1 = 3567
CG12546 + CG14452: E2F firefly, rep 1 = 94979; Renilla normaliser, rep 1 = 6540
msd1: E2F firefly, rep 1 = 1.10e5; Renilla normaliser, rep 1 = 4275
Nubpl: E2F firefly, rep 1 = 74660; Renilla normaliser, rep 1 = 3081
CG13856: E2F firefly, rep 1 = 1.54e5; Renilla normaliser, rep 1 = 8607
kst: E2F firefly, rep 1 = 74192; Renilla normaliser, rep 1 = 3388
CG4820: E2F firefly, rep 1 = 1.46e5; Renilla normaliser, rep 1 = 6137
Rsph1: E2F firefly, rep 1 = 1.03e5; Renilla normaliser, rep 1 = 4923
CG30393: E2F firefly, rep 1 = 90650; Renilla normaliser, rep 1 = 4024
CG7168: E2F firefly, rep 1 = 73033; Renilla normaliser, rep 1 = 3687
CG13293: E2F firefly, rep 1 = 94004; Renilla normaliser, rep 1 = 3932
Prp18: E2F firefly, rep 1 = 56849; Renilla normaliser, rep 1 = 3509
Pif1A #1: E2F firefly, rep 1 = 77096; Renilla normaliser, rep 1 = 4451
Pif1A #2: E2F firefly, rep 1 = 1.54e5; Renilla normaliser, rep 1 = 7485
C1GalTA: E2F firefly, rep 1 = 78177; Renilla normaliser, rep 1 = 3207
BHD: E2F firefly, rep 1 = 84391; Renilla normaliser, rep 1 = 3721
CG13984: E2F firefly, rep 1 = 1.49e5; Renilla normaliser, rep 1 = 4733
CG31633: E2F firefly, rep 1 = 1.48e5; Renilla normaliser, rep 1 = 5308
CG9582: E2F firefly, rep 1 = 1.50e5; Renilla normaliser, rep 1 = 5258
CG9518: E2F firefly, rep 1 = 1.43e5; Renilla normaliser, rep 1 = 7209
Setx: E2F firefly, rep 1 = 71982; Renilla normaliser, rep 1 = 2793
beg: E2F firefly, rep 1 = 67224; Renilla normaliser, rep 1 = 3182
CG33203 #1: E2F firefly, rep 1 = 1.40e5; Renilla normaliser, rep 1 = 6368
CG33203 #2: E2F firefly, rep 1 = 1.16e5; Renilla normaliser, rep 1 = 6426
CG33203 #3: E2F firefly, rep 1 = 1.10e5; Renilla normaliser, rep 1 = 5801

Part of the list above, reduced to “E2F firefly, rep 1”:
CG9582	1.50e5
CG9518	1.43e5
Setx	71982
